Test results as given in PMC3979765.
No constants are given. Whether binding was seen depends on the method and setting. Tags and fused reporters may be left off the sequences shown.

Chains of the proteins cited; added tags and fusions are not shown.
UniProt Q9NYA1: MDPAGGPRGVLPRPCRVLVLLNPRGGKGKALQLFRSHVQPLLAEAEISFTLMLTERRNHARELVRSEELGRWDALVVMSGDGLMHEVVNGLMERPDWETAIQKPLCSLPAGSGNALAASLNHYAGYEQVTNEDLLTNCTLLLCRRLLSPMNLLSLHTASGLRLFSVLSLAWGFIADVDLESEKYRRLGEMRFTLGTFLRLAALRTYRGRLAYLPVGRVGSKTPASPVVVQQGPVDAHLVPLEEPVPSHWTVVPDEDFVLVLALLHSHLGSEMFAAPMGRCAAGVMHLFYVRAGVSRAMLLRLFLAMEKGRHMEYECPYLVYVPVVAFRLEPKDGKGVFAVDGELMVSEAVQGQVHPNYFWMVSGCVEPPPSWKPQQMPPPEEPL

Molecular target: Recombinant purified His-SphK1 (UniProt Q9NYA1)
Experiment: pull-down; purified Memo or myc-Memo (2 μg) incubated with or without purified His-SphK1 (2 μg) for 16 h at 4°C in 50 mM Tris pH 7.5, 100 mM NaCl, 1 mM EDTA, 0.1% NP-40, 10% glycerol, 20 mM imidazole; Ni-NTA agarose 90 min at 4°C; western blot; both purified

B1: Recombinant purified Memo (protein, UniProt Q9Y316 1-297)
chain: MSNRVVCREASHAGSWYTASGPQLNAQLEGWLSQVQSTKRPARAIIAPHAGYTYCGSCAAHAYKQVDPSITRRIFILGPSHHVPLSRCALSSVDIYRTPLYDLRIDQKIYGELWKTGMFERMSLQTDEDEHSIEMHLPYTAKAMESHKDEFTIIPVLVGALSESKEQEFGKLFSKYLADPSNLFVVSSDFCHWGQRFRYSYYDESQGEIYRSIEHLDKMGMSIIEQLDPVSFSNYLKKYHNTICGRHPIGVLLNAITELQKNGMNMSFSFLNYAQSSQCRNWQDSSVSYAAGALTVH
- binding: no binding (tested: 2 μg of each protein)

B2: Recombinant purified myc-Memo (protein, UniProt Q9Y316 1-297)
chain: B1 chain
- binding: no binding (tested: 2 μg of each protein)
